Experimental data: PubChem BioAssay AID1224828 (NIAID, 2016)
The whole screen tested about 17,000 reagents; shown is an unselected part. In the full data, 762 (4.5%) were called active. 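Active calls include both raised and lowered p65 entry, mostly lowered; wells with fewer than 50 cells lack a z-score.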 Raw values vary from plate to plate and are shown uncorrected. Entries without a mark were called inactive.

Test: 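Find genes required for NF-kappaB p65 moving into the nucleus after LPS in mouse macrophages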 (primary screen)
System: mouse RAW264.7 G9 macrophage reporter cells (GFP-p65, Tnf promoter-mCherry)
Reagents: siRNA pool against mouse genes, 100 nM
Timing: 2 days siRNA transfection, then 40 min LPS before fixation
Challenge: LPS (Salmonella minnesota R595) at 10 ng/ml
Detection: 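Imaged p65 nuclear translocation ratio, normalised to the plate median, converted to robust z-scores and averaged across two replicates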
Scale: p65 translocation robust z-score: higher = more nuclear NF-kappaB p65 after LPS than the plate median; nuclear/cytoplasmic p65 ratio: higher = more nuclear NF-kappaB p65
Hit rule: 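Called active when z exceeds 3.3 or falls under -1.56 (median of Tlr4 controls), giving activity score of at least 50; no calls for control wells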
Meaning of the calls: active = hit (p65 shift raised or lowered); inactive = no clear change

Or1f19 (olfactory receptor family 1 subfamily F member 19) showed p65 translocation robust z-score -0.47; nuclear/cytoplasmic p65 ratio, rep 1 = 1.49; nuclear/cytoplasmic p65 ratio, rep 2 = 1.4; low cell count flag enough cells to score.
For Ablim3 (actin binding LIM protein family, member 3) the deposit lists p65 translocation robust z-score 0.23; nuclear/cytoplasmic p65 ratio, rep 1 = 1.61; nuclear/cytoplasmic p65 ratio, rep 2 = 1.58; low cell count flag enough cells to score.
Silencing of Krtap12-1 (keratin associated protein 12-1) gave: p65 translocation robust z-score -2.36 (active); nuclear/cytoplasmic p65 ratio, rep 1 = 1.17; nuclear/cytoplasmic p65 ratio, rep 2 = 1.16; low cell count flag enough cells to score.
Atn1 (atrophin 1) gave p65 translocation robust z-score 0.14; nuclear/cytoplasmic p65 ratio, rep 1 = 1.47; nuclear/cytoplasmic p65 ratio, rep 2 = 1.42; low cell count flag enough cells to score.
After knock-down of Or6f2 (olfactory receptor family 6 subfamily F member 2), the record shows nuclear/cytoplasmic p65 ratio, rep 1 = 1.33; nuclear/cytoplasmic p65 ratio, rep 2 = 1.19; low cell count flag fewer than 50 cells per well; well left out of scoring.
Kcnj6 (potassium inwardly-rectifying channel, subfamily J, member 6) gave p65 translocation robust z-score 0.57; nuclear/cytoplasmic p65 ratio, rep 1 = 1.54; nuclear/cytoplasmic p65 ratio, rep 2 = 1.71; low cell count flag enough cells to score.
Mastl (microtubule associated serine/threonine kinase-like) showed p65 translocation robust z-score 0.36; nuclear/cytoplasmic p65 ratio, rep 1 = 1.76; nuclear/cytoplasmic p65 ratio, rep 2 = 1.41; low cell count flag enough cells to score.
Kcnmb4 scored p65 translocation robust z-score 2.65; nuclear/cytoplasmic p65 ratio, rep 1 = 1.76; nuclear/cytoplasmic p65 ratio, rep 2 = 1.79; low cell count flag enough cells to score.
Against Mtus1 (mitochondrial tumor suppressor 1) the deposit lists p65 translocation robust z-score -0.68; nuclear/cytoplasmic p65 ratio, rep 1 = 1.6; nuclear/cytoplasmic p65 ratio, rep 2 = 1.55; low cell count flag enough cells to score.
For Lrrc59 (leucine rich repeat containing 59), the entry reads p65 translocation robust z-score -2.12 (active); nuclear/cytoplasmic p65 ratio, rep 1 = 1.12; nuclear/cytoplasmic p65 ratio, rep 2 = 1.21; low cell count flag enough cells to score.
Knock-down of Hsd17b8 (hydroxysteroid 17-beta dehydrogenase 8) came out at: nuclear/cytoplasmic p65 ratio, rep 1 = 1.69; nuclear/cytoplasmic p65 ratio, rep 2 = 1.4; low cell count flag fewer than 50 cells per well; well left out of scoring.
Dnai4 (dynein axonemal intermediate chain 4) gave p65 translocation robust z-score 0.51; nuclear/cytoplasmic p65 ratio, rep 1 = 1.7; nuclear/cytoplasmic p65 ratio, rep 2 = 1.88; low cell count flag enough cells to score.
Against Fgf15 (fibroblast growth factor 15), the values are p65 translocation robust z-score -0.16; nuclear/cytoplasmic p65 ratio, rep 1 = 1.45; nuclear/cytoplasmic p65 ratio, rep 2 = 1.31; low cell count flag enough cells to score.
Depletion of Tmem106c (transmembrane protein 106C) came out at: p65 translocation robust z-score 0.01; nuclear/cytoplasmic p65 ratio, rep 1 = 1.53; nuclear/cytoplasmic p65 ratio, rep 2 = 1.84; low cell count flag enough cells to score.
With knock-down of Aqp1 (aquaporin 1), the screen gave p65 translocation robust z-score -0.53; nuclear/cytoplasmic p65 ratio, rep 1 = 1.56; nuclear/cytoplasmic p65 ratio, rep 2 = 1.52; low cell count flag enough cells to score.
After knock-down of Mrpl1 (mitochondrial ribosomal protein L1), the screen gave p65 translocation robust z-score -0.63; nuclear/cytoplasmic p65 ratio, rep 1 = 1.32; nuclear/cytoplasmic p65 ratio, rep 2 = 1.3; low cell count flag enough cells to score.
Agpat2 (1-acylglycerol-3-phosphate O-acyltransferase 2) scored p65 translocation robust z-score 0.31; nuclear/cytoplasmic p65 ratio, rep 1 = 1.63; nuclear/cytoplasmic p65 ratio, rep 2 = 1.7; low cell count flag enough cells to score.
Against Hsd17b1 (hydroxysteroid (17-beta) dehydrogenase 1), the values are p65 translocation robust z-score -0.07; nuclear/cytoplasmic p65 ratio, rep 1 = 1.46; nuclear/cytoplasmic p65 ratio, rep 2 = 1.34; low cell count flag enough cells to score.
Against Smyd4 (SET and MYND domain containing 4), the values are nuclear/cytoplasmic p65 ratio, rep 1 = 1.37; nuclear/cytoplasmic p65 ratio, rep 2 = 1.37; low cell count flag fewer than 50 cells per well; well left out of scoring.
Depletion of Ccdc71 (coiled-coil domain containing 71) gave: p65 translocation robust z-score -0.84; nuclear/cytoplasmic p65 ratio, rep 1 = 1.37; nuclear/cytoplasmic p65 ratio, rep 2 = 1.26; low cell count flag enough cells to score.
Ctif (CBP80/20-dependent translation initiation factor) showed p65 translocation robust z-score -2.22 (active); nuclear/cytoplasmic p65 ratio, rep 1 = 1.31; nuclear/cytoplasmic p65 ratio, rep 2 = 1.24; low cell count flag enough cells to score.

Taken from above:
Or1f19 (olfactory receptor family 1 subfamily F member 19), nuclear/cytoplasmic p65 ratio, rep 2 → 1.4
Under “p65 translocation robust z-score”, Ctif (CBP80/20-dependent translation initiation factor) is entered as -2.22 (active)
Lrrc59 (leucine rich repeat containing 59), p65 translocation robust z-score: -2.12 (active)
